Results published in PMC7560607, “Synapse type-specific proteomic dissection identifies IgSF8 as a hippocampal CA3 microcircuit organizer” (Nature Communications, 2020).
These are yes or no findings as the source states them, for the method shown. For part of these data: Binding seen in cells or lysates may run through a third protein. Some entries that bind do so weakly or less than the wild type. For part of these data: Where a sequence is shown, tags or fusion partners need not be part of it. Blank lines part the entries; values can stand above or below the molecule they belong to.

Chains of the proteins cited; added tags and fusions are not shown. Residues count along the entry.
UniProt Q99K10, residues 46-697: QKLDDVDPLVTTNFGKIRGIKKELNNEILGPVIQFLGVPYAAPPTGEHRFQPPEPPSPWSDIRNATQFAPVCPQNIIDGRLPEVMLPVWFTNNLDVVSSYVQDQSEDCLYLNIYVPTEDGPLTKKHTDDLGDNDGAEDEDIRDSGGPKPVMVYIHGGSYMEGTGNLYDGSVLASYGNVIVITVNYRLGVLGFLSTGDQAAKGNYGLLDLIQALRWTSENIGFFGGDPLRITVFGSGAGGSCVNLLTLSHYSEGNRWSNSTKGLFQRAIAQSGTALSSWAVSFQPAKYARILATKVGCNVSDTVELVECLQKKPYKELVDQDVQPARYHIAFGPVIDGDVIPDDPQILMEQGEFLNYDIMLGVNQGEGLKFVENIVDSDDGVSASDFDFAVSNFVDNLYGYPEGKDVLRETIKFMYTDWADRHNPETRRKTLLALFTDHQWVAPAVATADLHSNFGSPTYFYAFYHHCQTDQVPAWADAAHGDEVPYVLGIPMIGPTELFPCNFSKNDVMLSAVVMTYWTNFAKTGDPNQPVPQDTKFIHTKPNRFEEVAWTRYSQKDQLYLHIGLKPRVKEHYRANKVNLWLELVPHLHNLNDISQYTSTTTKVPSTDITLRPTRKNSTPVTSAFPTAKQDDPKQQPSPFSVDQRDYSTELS
UniProt Q6VNS1, residues 32-429: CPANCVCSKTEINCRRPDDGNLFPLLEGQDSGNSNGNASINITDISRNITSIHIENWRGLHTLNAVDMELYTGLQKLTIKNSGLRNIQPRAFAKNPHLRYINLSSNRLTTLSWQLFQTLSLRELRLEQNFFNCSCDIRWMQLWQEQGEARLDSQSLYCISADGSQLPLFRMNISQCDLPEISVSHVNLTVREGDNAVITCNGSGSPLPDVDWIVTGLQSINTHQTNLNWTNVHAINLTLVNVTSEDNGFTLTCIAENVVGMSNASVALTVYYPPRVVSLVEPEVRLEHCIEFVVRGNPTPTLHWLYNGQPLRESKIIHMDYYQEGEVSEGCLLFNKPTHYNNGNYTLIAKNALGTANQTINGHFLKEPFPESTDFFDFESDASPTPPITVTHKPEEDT
UniProt O88998, residues 17-485: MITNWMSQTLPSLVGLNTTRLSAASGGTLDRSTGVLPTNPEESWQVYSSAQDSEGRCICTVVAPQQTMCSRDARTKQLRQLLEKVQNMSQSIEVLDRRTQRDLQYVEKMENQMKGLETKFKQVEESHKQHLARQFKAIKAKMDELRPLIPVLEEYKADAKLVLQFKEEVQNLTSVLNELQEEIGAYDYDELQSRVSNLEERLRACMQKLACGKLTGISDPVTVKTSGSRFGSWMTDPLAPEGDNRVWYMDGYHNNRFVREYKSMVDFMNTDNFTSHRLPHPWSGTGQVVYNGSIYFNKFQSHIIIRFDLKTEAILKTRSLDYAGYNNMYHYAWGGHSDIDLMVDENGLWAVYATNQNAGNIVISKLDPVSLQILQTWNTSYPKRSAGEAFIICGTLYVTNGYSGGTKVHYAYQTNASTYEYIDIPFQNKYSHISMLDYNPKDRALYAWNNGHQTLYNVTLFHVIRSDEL

What was measured:
[1] = biological target: T1, IgSF containing LRR protein 2 extracellular domain, AP- or Fc-tagged (interactome library) (not stated (human or mouse sequence cloned)) (UniProt Q5RKR3); assay: ELISA; 384-well pairwise screen; ecto-AP bait captured by plate-bound anti-AP antibody, ecto-Fc prey detected with anti-human IgG1-HRP; conditioned media; 4 h at RT; both orientations, three independent experiments; positive = OD650 > 5-fold over background, detected at least twice
T1 sequence: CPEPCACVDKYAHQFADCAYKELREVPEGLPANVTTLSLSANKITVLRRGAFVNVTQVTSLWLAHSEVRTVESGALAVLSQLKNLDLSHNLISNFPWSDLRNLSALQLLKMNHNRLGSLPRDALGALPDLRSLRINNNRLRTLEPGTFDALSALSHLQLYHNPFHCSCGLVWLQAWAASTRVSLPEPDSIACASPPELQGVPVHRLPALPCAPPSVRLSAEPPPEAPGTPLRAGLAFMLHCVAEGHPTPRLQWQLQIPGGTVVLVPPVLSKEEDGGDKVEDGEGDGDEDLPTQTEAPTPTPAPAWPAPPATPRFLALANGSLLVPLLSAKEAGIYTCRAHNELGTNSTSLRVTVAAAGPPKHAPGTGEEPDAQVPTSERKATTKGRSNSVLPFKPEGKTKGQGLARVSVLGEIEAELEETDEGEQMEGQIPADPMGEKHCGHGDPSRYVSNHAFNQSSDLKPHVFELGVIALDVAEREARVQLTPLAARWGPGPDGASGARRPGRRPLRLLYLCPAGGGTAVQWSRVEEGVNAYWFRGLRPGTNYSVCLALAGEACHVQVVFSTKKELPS

[2] = biological target: NLGN1 extracellular domain, AP- or Fc-tagged (interactome library) (not stated (human or mouse sequence cloned)) (UniProt Q99K10); assay: as above
[3] = biological target: T2, Tenascin-R, AP- or Fc-tagged (interactome library) (not stated (human or mouse sequence cloned)) (UniProt Q8BYI9); assay: as above
T2 sequence: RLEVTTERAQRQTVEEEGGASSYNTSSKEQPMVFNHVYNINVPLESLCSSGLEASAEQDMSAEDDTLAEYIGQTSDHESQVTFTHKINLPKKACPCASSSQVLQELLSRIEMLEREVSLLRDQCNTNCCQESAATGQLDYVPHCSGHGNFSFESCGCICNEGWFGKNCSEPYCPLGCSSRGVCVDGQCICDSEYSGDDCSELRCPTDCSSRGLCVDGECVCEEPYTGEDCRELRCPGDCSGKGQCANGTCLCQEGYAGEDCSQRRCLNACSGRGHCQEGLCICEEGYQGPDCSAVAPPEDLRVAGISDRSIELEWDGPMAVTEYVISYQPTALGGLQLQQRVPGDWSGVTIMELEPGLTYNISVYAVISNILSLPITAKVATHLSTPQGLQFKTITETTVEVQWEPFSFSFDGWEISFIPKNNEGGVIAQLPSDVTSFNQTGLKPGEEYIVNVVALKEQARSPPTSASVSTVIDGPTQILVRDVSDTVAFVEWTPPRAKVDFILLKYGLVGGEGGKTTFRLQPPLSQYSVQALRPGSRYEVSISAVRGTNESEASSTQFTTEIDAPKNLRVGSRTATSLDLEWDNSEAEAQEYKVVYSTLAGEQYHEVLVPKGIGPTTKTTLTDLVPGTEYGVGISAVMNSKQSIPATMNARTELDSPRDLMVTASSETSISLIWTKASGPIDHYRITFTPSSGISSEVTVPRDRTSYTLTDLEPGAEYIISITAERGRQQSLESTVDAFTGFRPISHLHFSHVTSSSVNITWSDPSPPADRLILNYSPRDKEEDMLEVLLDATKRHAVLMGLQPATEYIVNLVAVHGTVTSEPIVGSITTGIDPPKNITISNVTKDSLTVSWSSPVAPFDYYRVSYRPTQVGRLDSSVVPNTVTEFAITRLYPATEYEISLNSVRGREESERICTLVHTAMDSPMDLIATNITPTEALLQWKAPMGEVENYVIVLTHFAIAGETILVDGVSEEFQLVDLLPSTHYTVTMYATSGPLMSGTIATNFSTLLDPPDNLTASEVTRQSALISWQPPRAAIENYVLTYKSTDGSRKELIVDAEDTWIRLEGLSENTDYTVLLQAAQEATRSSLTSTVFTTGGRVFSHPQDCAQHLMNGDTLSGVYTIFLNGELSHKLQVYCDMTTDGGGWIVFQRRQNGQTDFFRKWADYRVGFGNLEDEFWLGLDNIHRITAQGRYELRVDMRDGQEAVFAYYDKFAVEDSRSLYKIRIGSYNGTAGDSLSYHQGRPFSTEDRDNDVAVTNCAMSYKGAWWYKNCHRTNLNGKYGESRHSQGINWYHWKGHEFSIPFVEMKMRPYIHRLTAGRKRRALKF

[4] = biological target: T3, Tenascin-R-Fc (not stated (human or mouse sequences)) (UniProt Q8BYI9); assay: pull-down; 3 ug purified Fc fusion added to 1 ml RIPA lysate of transfected HEK293T cells, overnight 4 °C, Protein-A agarose beads, western blot with anti-GFP; only the target purified
T3 sequence: T2 sequence

[5] = biological target: T4, Tenascin-R-Fc, purified (not stated (human or mouse sequence cloned)) (UniProt Q8BYI9); assay: pull-down; 3 µg Fc protein added to RIPA lysate of transfected HEK293T cells, overnight 4 °C; Protein-A agarose; anti-GFP western blot; only the target purified
T4 sequence: T2 sequence

[6] = biological target: TrkC ectodomain (Fc and AP fusions) (not stated (human or mouse ectodomain sequences)) (UniProt Q6VNS1); assay: ELISA; 384-well pairwise screen; ecto-AP fusion captured on plate by anti-AP antibody, ecto-Fc fusion detected with anti-human IgG1-HRP; conditioned media, 4 h RT; both orientations; positive: OD650 > 5-fold over background, detected at least twice in three experiments

binding [1]: binds
Molecule: NLGN1 extracellular domain, AP- or Fc-tagged (interactome library) (from UniProt Q99K10 46-697) (domain or fragment)

binding [2]: binds
Molecule: neuronal olfactomedin-related ER localized protein/olfactomedin-1, AP- or Fc-tagged (interactome library) (from UniProt O88998 17-485)

binding [3]: binds
B1: IgSF8 extracellular domain, AP- or Fc-tagged (interactome library) (domain or fragment, UniProt Q8R366 26-577)
chain: RQVHVPRGPLYRVAGTAVSISCNVSDYEGPAQQDFEWFMYRPEAPATSLGIVSTKDSQFSYAVFGPRVASGDLQVQRLKGDSVVLKIARLQAQDSGFYECYTPSTDTQYLGNYSAKVELRVLPDELQVSAAPPGPRGRQAATSPSRLTVHEGQELALGCLAQTKTKKHTHLSVSFGRAIPEAPVGRATLQEVVGLRSDMAVEAGAPYAERLASGELRLSKEGTDRYRMVVGGAQAGDSGTYHCTAAEWIQDPDGSWVQVAEKRAVLAHVDVQTLSSQLAVTVGPGERRIGPGEPLELLCNVSGALPPPGRHAAYSVGWEMAPAGAPGPGRLVAQLDTEGIGSLGPGYEDRHIAMEKVASRTYRLRLEAARPADAGTYRCLAKAYVRGSGTRLREAASARSRPLPVHVREEGVVLEAVAWLAGGTVYRGETASLLCNISVRGGPPGLRLAASWWVERPEEGELSSGPAQLVGGVGQDGVAELGVRPGGGPVSVELVGPRSHRLRLHGLGPEDEGIYHCAPSAWVQHADYSWYQAGSARSGPVTVYPYTHAVDT

binding [4]: binds
binding [5]: binds
B2: IgSF8-EGFP (receptor, UniProt Q8R366 26-611)
chain: RQVHVPRGPLYRVAGTAVSISCNVSDYEGPAQQDFEWFMYRPEAPATSLGIVSTKDSQFSYAVFGPRVASGDLQVQRLKGDSVVLKIARLQAQDSGFYECYTPSTDTQYLGNYSAKVELRVLPDELQVSAAPPGPRGRQAATSPSRLTVHEGQELALGCLAQTKTKKHTHLSVSFGRAIPEAPVGRATLQEVVGLRSDMAVEAGAPYAERLASGELRLSKEGTDRYRMVVGGAQAGDSGTYHCTAAEWIQDPDGSWVQVAEKRAVLAHVDVQTLSSQLAVTVGPGERRIGPGEPLELLCNVSGALPPPGRHAAYSVGWEMAPAGAPGPGRLVAQLDTEGIGSLGPGYEDRHIAMEKVASRTYRLRLEAARPADAGTYRCLAKAYVRGSGTRLREAASARSRPLPVHVREEGVVLEAVAWLAGGTVYRGETASLLCNISVRGGPPGLRLAASWWVERPEEGELSSGPAQLVGGVGQDGVAELGVRPGGGPVSVELVGPRSHRLRLHGLGPEDEGIYHCAPSAWVQHADYSWYQAGSARSGPVTVYPYTHAVDTLFVPLLVGTGVALVTGASVLATITCCFMKRMRKR

binding [6]: binds
B3: RPTPσ ectodomain (Fc and AP fusions) (domain or fragment, UniProt B0V2N1 30-1257)
chain: EEPPRFIREPKDQIGVSGGVASFVCQATGDPKPRVTWNKKGKKVNSQRFETIDFDESSGAVLRIQPLRTPRDENVYECVAQNSVGEITIHAKLTVLREDQLPPGFPNIDMGPQLKVVERTRTATMLCAASGNPDPEITWFKDFLPVDPSASNGRIKQLRSGALQIESSEETDQGKYECVATNSAGVRYSSPANLYVRVRRVAPRFSILPMSHEIMPGGNVNITCVAVGSPMPYVKWMQGAEDLTPEDDMPVGRNVLELTDVKDSANYTCVAMSSLGVIEAVAQITVKSLPKAPGTPVVTENTATSITVTWDSGNPDPVSYYVIEYKSKSQDGPYQIKEDITTTRYSIGGLSPNSEYEIWVSAVNSIGQGPPSESVVTRTGEQAPASAPRNVQARMLSATTMIVQWEEPVEPNGLIRGYRVYYTMEPEHPVGNWQKHNVDDSLLTTVGSLLEDETYTVRVLAFTSVGDGPLSDPIQVKTQQGVPGQPMNLRAEAKSETSIGLSWSAPRQESVIKYELLFREGDRGREVGRTFDPTTAFVVEDLKPNTEYAFRLAARSPQGLGAFTAVVRQRTLQAKPSAPPQDVKCTSLRSTAILVSWRPPPPETHNGALVGYSVRYRPLGSEDPDPKEVNNIPPTTTQILLEALEKWTEYRVTAVAYTEVGPGPESSPVVVRTDEDVPSAPPRKVEAEALNATAIRVLWRSPTPGRQHGQIRGYQVHYVRMEGAEARGPPRIKDIMLADAQEMVITNLQPETAYSITVAAYTMKGDGARSKPKVVVTKGAVLGRPTLSVQQTPEGSLLARWEPPADAAEDPVLGYRLQFGREDAAPATLELAAWERRFAAPAHKGATYVFRLAARGRAGLGEEAAAALSIPEDAPRGFPQILGAAGNVSAGSVLLRWLPPVPAERNGAIIKYTVSVREAGAPGPATETELAAAAQPGAETALTLRGLRPETAYELRVRAHTRRGPGPFSPPLRYRLARDPVSPKNFKVKMIMKTSVLLSWEFPDNYNSPTPYKIQYNGLTLDVDGRTTKKLITHLKPHTFYNFVLTNRGSSLGGLQQTVTARTAFNMLSGKPSVAPKPDNDGFIVVYLPDGQSPVTVQNYFIVMVPLRKSRGGQFPVLLGSPEDMDLEELIQDISRLQRRSLRHSRQLEVPRPYIAARFSILPAVFHPGNQKQYGGFDNRGLEPGHRYVLFVLAVLQKNEPTFAASPFSDPFQLDNPDPQPIVDGEEG
